Measurements reported in patent publication US7767458B2, “Method for determining coagulation activation and device for carrying out said method” (Technoclone Gesellschaft m.b.H., priority 2005, dated 2010).

Tested on: proteolyitic enzymes which cleave the fluoriginic substrate
Experiment: Thrombin generation by fluorescence measurement in whole blood samples with added protease inhibitors
Assay type: biochemical
Conditions: anticoagulated whole blood, fluorigenic substrate; Aprotinin 3 concentrations (FIG. 10), Leupeptin 2 concentrations (FIG. 11)

Compound	interpretability of thrombin generation measured in whole blood
CC(=O)N[C@@H](CC(C)C)C(=O)N[C@@H](CC(C)C)C(=O)N[C@H](C=O)CCCNC(=N)N [Leupeptin]	yielding a result that can be interpreted; also recorded: the results are interpretable
Aprotinin	yielding a result that can be interpreted; also recorded: the results are interpretable

“Also recorded” adds a separate entry of the source.
